PMC3459988
Where a chain is given by its changes, count along the chain named. For at least one entry, the source does not settle the construct or the ends of the probe. Where cells or extracts were used, other partners may take part. For some of these results: The comparison behind a weaker result is the experiment's own reference, which may not be listed here. For some of these results: At least one verdict rests on a figure or table, not on a statement of the authors. For some of these results: Tags and fusion partners may be left off the protein sequences shown.

Legend:
[1] = molecular target: TTP phosphorylated by p38/MK2 (UniProt P22893); test: EMSA; settings: 4e-6 M TTP, p38/MK2-phosphorylated versus dephosphorylated; EMSA: 20 mM HEPES pH 7.6, 3 mM MgCl2, 40 mM KCl, 5% glycerol, 2 mM DTT, 4 ug tRNA, 75 fmol probe in 20 ul (text states 75 fM), 25 min, 4 C; protein in a lysate after overexpression; protein details: His-Strep (pcDNA3); label: 5'-DY-681
TTP-AA S52A,S178A [2] = molecular target: T1, TTP-AA S52A,S178A (UniProt P22893); test: EMSA; settings: EMSA: 20 mM HEPES pH 7.6, 3 mM MgCl2, 40 mM KCl, 5% glycerol, 2 mM DTT, 4 ug tRNA, 75 fmol probe in 20 ul (text states 75 fM), 25 min, 4 C, protein in a lysate after overexpression, protein details: His-Strep (pcDNA3), label: 5'-DY-681
T1 sequence (looked up, limits assumed): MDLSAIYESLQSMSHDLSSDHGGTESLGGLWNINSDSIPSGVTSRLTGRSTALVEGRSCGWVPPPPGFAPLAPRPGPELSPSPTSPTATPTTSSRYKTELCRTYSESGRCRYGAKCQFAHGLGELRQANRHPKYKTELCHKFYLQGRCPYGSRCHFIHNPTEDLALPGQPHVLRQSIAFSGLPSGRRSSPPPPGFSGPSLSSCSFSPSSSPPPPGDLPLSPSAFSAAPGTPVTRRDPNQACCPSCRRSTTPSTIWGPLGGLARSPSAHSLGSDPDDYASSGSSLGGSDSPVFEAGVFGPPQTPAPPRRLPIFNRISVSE

[3] = tested on: HuR (His/Strep-purified strep-HuR); test: EMSA supershift; settings: as purified, two-band pattern, anti-HuR supershift; EMSA: 20 mM HEPES pH 7.6, 3 mM MgCl2, 40 mM KCl, 5% glycerol, 2 mM DTT, 4 ug tRNA, 75 fmol probe in 20 ul (text states 75 fM), 25 min, 4 C; protein in a lysate after overexpression; protein details: Strep (pEXPR-IBA105); label: 5'-DY-681
[4] = molecular target: T2, TTP, CIP-dephosphorylated or as purified (UniProt P22893); test: EMSA supershift; settings: one band, anti-TTP supershift, EMSA: 20 mM HEPES pH 7.6, 3 mM MgCl2, 40 mM KCl, 5% glycerol, 2 mM DTT, 4 ug tRNA, 75 fmol probe in 20 ul (text states 75 fM), 25 min, 4 C, protein in a lysate after overexpression, protein details: His-Strep (pcDNA3), label: 5'-DY-681
T2 sequence (looked up, limits assumed): T1 sequence (looked up, limits assumed) with A52S, A178S

[5] = tested on: HuR (His/Strep-purified strep-HuR); test: competition, UV cross-linking; settings: TTP competitor, no active MK2, displacement at about threefold molar excess of the other protein; EMSA: 20 mM HEPES pH 7.6, 3 mM MgCl2, 40 mM KCl, 5% glycerol, 2 mM DTT, 4 ug tRNA, 75 fmol probe in 20 ul (text states 75 fM), 25 min, 4 C; protein in a lysate after overexpression; protein details: Strep (pEXPR-IBA105); label: 5'-DY-681
[6] = tested on: HuR incubated with p38/MK2; test: competition, UV cross-linking; settings: 25 ng HuR with 100 ng TTP, active p38/MK2, almost exclusive HuR binding; EMSA: 20 mM HEPES pH 7.6, 3 mM MgCl2, 40 mM KCl, 5% glycerol, 2 mM DTT, 4 ug tRNA, 75 fmol probe in 20 ul (text states 75 fM), 25 min, 4 C; protein in a lysate after overexpression; protein details: Strep (pEXPR-IBA105); label: 5'-DY-681
[7] = molecular target: TTP phosphorylated by p38/MK2 (UniProt P22893); test: competition, UV cross-linking; settings: 100 ng TTP with 25 ng HuR, active p38/MK2, displaced by HuR; EMSA: 20 mM HEPES pH 7.6, 3 mM MgCl2, 40 mM KCl, 5% glycerol, 2 mM DTT, 4 ug tRNA, 75 fmol probe in 20 ul (text states 75 fM), 25 min, 4 C; protein in a lysate after overexpression; protein details: His-Strep (pcDNA3); label: 5'-DY-681
[8] = molecular target: T2, TTP, CIP-dephosphorylated or as purified; test: competition, UV cross-linking; settings: HuR competitor, no active MK2, displacement at about threefold molar excess of the other protein; EMSA: 20 mM HEPES pH 7.6, 3 mM MgCl2, 40 mM KCl, 5% glycerol, 2 mM DTT, 4 ug tRNA, 75 fmol probe in 20 ul (text states 75 fM), 25 min, 4 C; protein in a lysate after overexpression; protein details: His-Strep (pcDNA3); label: 5'-DY-681
TTP-AA S52A,S178A [9] = molecular target: T1, TTP-AA S52A,S178A; test: competition, UV cross-linking; settings: 100 ng with 25 or 50 ng HuR, equilibrium unchanged by p38/MK2; EMSA: 20 mM HEPES pH 7.6, 3 mM MgCl2, 40 mM KCl, 5% glycerol, 2 mM DTT, 4 ug tRNA, 75 fmol probe in 20 ul (text states 75 fM), 25 min, 4 C; protein in a lysate after overexpression; protein details: His-Strep (pcDNA3); label: 5'-DY-681
TTP-S178A = molecular target: T3, TTP-S178A (UniProt P22893); test: competition, UV cross-linking; settings: 100 ng with 25 or 50 ng HuR, equilibrium unchanged by p38/MK2; EMSA: 20 mM HEPES pH 7.6, 3 mM MgCl2, 40 mM KCl, 5% glycerol, 2 mM DTT, 4 ug tRNA, 75 fmol probe in 20 ul (text states 75 fM), 25 min, 4 C; protein in a lysate after overexpression; protein details: His-Strep (pcDNA3); label: 5'-DY-681
T3 sequence (looked up, limits assumed): T1 sequence (looked up, limits assumed) with A52S

TTP-S52A = molecular target: T4, TTP-S52A (UniProt P22893); test: competition, UV cross-linking; settings: 100 ng with 25 or 50 ng HuR, equilibrium unchanged by p38/MK2; EMSA: 20 mM HEPES pH 7.6, 3 mM MgCl2, 40 mM KCl, 5% glycerol, 2 mM DTT, 4 ug tRNA, 75 fmol probe in 20 ul (text states 75 fM), 25 min, 4 C; protein in a lysate after overexpression; protein details: His-Strep (pcDNA3); label: 5'-DY-681
T4 sequence (looked up, limits assumed): T1 sequence (looked up, limits assumed) with A178S

[10] = tested on: HuR (His/Strep-purified strep-HuR); test: EMSA and UV cross-linking titration; settings: CIP-dephosphorylated; EMSA: 20 mM HEPES pH 7.6, 3 mM MgCl2, 40 mM KCl, 5% glycerol, 2 mM DTT, 4 ug tRNA, 75 fmol probe in 20 ul (text states 75 fM), 25 min, 4 C; protein in a lysate after overexpression; protein details: Strep (pEXPR-IBA105); label: 5'-DY-681
[11] = tested on: HuR incubated with p38/MK2; test: EMSA and UV cross-linking titration; settings: active p38/MK2, no significant change; EMSA: 20 mM HEPES pH 7.6, 3 mM MgCl2, 40 mM KCl, 5% glycerol, 2 mM DTT, 4 ug tRNA, 75 fmol probe in 20 ul (text states 75 fM), 25 min, 4 C; protein in a lysate after overexpression; protein details: Strep (pEXPR-IBA105); label: 5'-DY-681
[12] = molecular target: TTP phosphorylated by p38/MK2 (UniProt P22893); test: EMSA and UV cross-linking titration; settings: p38/MK2-phosphorylated; EMSA: 20 mM HEPES pH 7.6, 3 mM MgCl2, 40 mM KCl, 5% glycerol, 2 mM DTT, 4 ug tRNA, 75 fmol probe in 20 ul (text states 75 fM), 25 min, 4 C; protein in a lysate after overexpression; protein details: His-Strep (pcDNA3); label: 5'-DY-681
[13] = molecular target: T2, TTP, CIP-dephosphorylated or as purified; test: EMSA and UV cross-linking titration; settings: CIP-dephosphorylated; EMSA: 20 mM HEPES pH 7.6, 3 mM MgCl2, 40 mM KCl, 5% glycerol, 2 mM DTT, 4 ug tRNA, 75 fmol probe in 20 ul (text states 75 fM), 25 min, 4 C; protein in a lysate after overexpression; protein details: His-Strep (pcDNA3); label: 5'-DY-681

“AUUUAUUUAUUUAUUUAUUUAUUUA [TNF ARE RNA probe]”: binds more weakly [1]; binds (TTP-AA S52A,S178A [2]; active p38/MK2, affinity not altered); binds (TTP-AA S52A,S178A [2]; data not shown). “AUUUAUUUAUUUAUUUAUUUAUUUA [TNF ARE RNA probe]”: binds [3]; binds [4]; binds [5]. “AUUUAUUUAUUUAUUUAUUUAUUUA [TNF ARE RNA probe]”: binds [6]; binds more weakly [7]; binds [8]. “AUUUAUUUAUUUAUUUAUUUAUUUA [TNF ARE RNA probe]”: binds (TTP-AA S52A,S178A [9]); binds (TTP-S178A); binds (TTP-S52A). “AUUUAUUUAUUUAUUUAUUUAUUUA [TNF ARE RNA probe]”: binds [10]; binds [11]; binds more weakly [12]. The Kd [13] was 5 1e-7 M.
